# According to PubChem BioAssay AID256 (DTP/NCI, 2004):
# The list shows only some results of the screen, not a fair sample: it is rich in T/C values a quarter to a half above the control, in often repeated tests (any T/C) and in doses without a T/C. Other doses and runs of a compound stand elsewhere. T/C is the treated group as % of the vehicle group. Some entries give survivors of the animals treated and no T/C: the source holds a T/C of zero for them, seemingly a mark for toxic or unscored doses. Some doses without a T/C left all or most animals alive at the check, yet need not have been tolerated: the source hardly ever lists a survival T/C far under the control, and the zero likely stands for such cases as well. Counts of survivors are from the toxicity check (mostly the fifth day) where no day follows; animals may have died later. Schedules are NCI's codes, taken here to give the interval after Q, in days (D) or hours (H), and the number of doses after X. Some entries hold several experiments; the values are given in rising order. For survival time, this PubChem deposit counts one and a half times the control or more as active, and values a quarter to a half above the control carry no call in these data; other NCI protocols may use other cut-offs. Some T/C values carry the count of animals alive at the toxicity check (mostly the fifth day); where none is given, no animal had died by that day.
# Tested on: CD2F1 mice, L1210 leukemia ip, survival T/C
# Assay: NCI In Vivo Anticancer Drug Screen. Data for tumor model L1210 Leukemia (intraperitoneal) in CD2F1 (CDF1) mice
# Details: higher T/C = longer survival
# Summary of the method: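 Implant tumor; dose compound or vehicle; measure endpoint in both groups; report treated divided by control.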
# [1] = T/C endpoint: mean survival time, dose: 400.0 mg/kg/injection, schedule: Q04DX002 (ip), vehicle: saline with Tween-80
# [2] = T/C endpoint: mean survival time, dose: 50.0 mg/kg/injection, schedule: Q01DX005 (ip), vehicle: other
# [3] = T/C endpoint: mean survival time, dose: 100.0 mg/kg/injection, schedule: Q01DX005 (ip), vehicle: other
# [4] = T/C endpoint: mean survival time, dose: 200.0 mg/kg/injection, schedule: Q04DX003 (ip), vehicle: saline with Tween-80
# [5] = T/C endpoint: mean survival time, dose: 400.0 mg/kg/injection, schedule: Q04DX003 (ip), vehicle: saline with Tween-80
# [6] = T/C endpoint: mean survival time, dose: 100.0 mg/kg/injection, schedule: Q04DX003 (ip), vehicle: saline with Tween-80
# [7] = T/C endpoint: mean survival time, dose: 200.0 mg/kg/injection, schedule: Q01DX009 (ip), vehicle: saline with Tween-80
# [8] = T/C endpoint: mean survival time, dose: 400.0 mg/kg/injection, schedule: Q01DX009 (ip), vehicle: saline with Tween-80
# [9] = T/C endpoint: mean survival time, dose: 400.0 mg/kg/injection, schedule: Q04DX003 (ip), vehicle: saline
smiles,measurement,setting,value
CNNC1CCC2C3CCc4cc(O)ccc4C3CCC12C (stereo unspecified),survivor count,"T/C endpoint: mean survival time, dose: 100.0 mg/kg/injection, schedule: Q01DX009 (ip), vehicle: Klucel (hydroxypropylcellulose) (HPC)",0 of 3
same,survivor count,"T/C endpoint: mean survival time, dose: 200.0 mg/kg/injection, schedule: Q01DX009 (ip), vehicle: Klucel (hydroxypropylcellulose) (HPC)",0 of 3
same,survivor count,"T/C endpoint: mean survival time, dose: 400.0 mg/kg/injection, schedule: Q01DX009 (ip), vehicle: Klucel (hydroxypropylcellulose) (HPC)",0 of 3
Cc1ccc(NCC(O)C(O)C(O)CO)cc1C (stereo unspecified),survivor count,[1],3 of 3
c1coc(CNc2ncnc3c2ncn3Cc2ccco2)c1,survivor count,[2],5 of 5
same,survivor count,[3],4 of 5
C=CCNC(=O)/C=C/C(=O)NCC=C,survivor count,[4],3 of 6
same,survivor count,[5],1 of 6
CCNC1=C(C)C(=O)C2=C(C1=O)C(COC(N)=O)C1(OC)C3NC3CN21 (stereo unspecified),T/C,"T/C endpoint: mean survival time, dose: 24.0 mg/kg/injection, schedule: Q01DX001 (ip), vehicle: water",142 % of control
NC(=S)NN=C1CCCC1,survivor count,[6],0 of 6
same,survivor count,[4],0 of 6
same,survivor count,[5],0 of 6
O=C(/C=C/c1ccc2c(c1)OCO2)c1ccc(Cl)cc1,survivor count,[5],6 of 6
C[n+]1ccccc1C#N,survivor count,"T/C endpoint: mean survival time, dose: 100.0 mg/kg/injection, schedule: Q01DX009 (ip), vehicle: saline sonified",3 of 6
same,survivor count,[4],1 of 6
same,survivor count,[5],0 of 6
OCC1OC(n2cnc3c([Se]Cc4ccccc4)ncnc32)C(O)C1O (stereo unspecified),survivor count,"T/C endpoint: mean survival time, dose: 100.0 mg/kg/injection, schedule: Q01DX005 (ip), vehicle: saline",0 of 6
same,survivor count,"T/C endpoint: mean survival time, dose: 200.0 mg/kg/injection, schedule: Q01DX005 (ip), vehicle: saline",0 of 6
Cc1[nH]ccc2c(C)c3nc4ccccc4c3cc12,T/C,"T/C endpoint: mean survival time, dose: 66.0 mg/kg/injection, schedule: Q04DX003 (ip), vehicle: saline with Tween-80",140 % of control
same,T/C,[6],136 and 138 % of control
same,T/C,"T/C endpoint: mean survival time, dose: 150.0 mg/kg/injection, schedule: Q04DX003 (ip), vehicle: saline with Tween-80",136 % of control [5 of 6 alive]
same,survivor count,[7],5 of 6
same,survivor count,[5],6 of 6
COC(=O)C(N)CSCSCc1ccccc1 (stereo unspecified),survivor count,"T/C endpoint: mean survival time, dose: 200.0 mg/kg/injection, schedule: Q01DX005 (ip), vehicle: water",1 of 6
same,survivor count,"T/C endpoint: mean survival time, dose: 400.0 mg/kg/injection, schedule: Q01DX005 (ip), vehicle: water",0 of 6
CCN(CC)CC(=O)Nc1c(Cl)cccc1Cl,survivor count,"T/C endpoint: mean survival time, dose: 400.0 mg/kg/injection, schedule: Q01DX009 (ip), vehicle: saline",2 of 6
CCOP(=O)(OCC)C(C)c1ccccc1 (stereo unspecified),survivor count,[8],3 of 6
Nc1ncnc2c1ncn2C1OC(CO)C2[O][Sn]([c]3ccccc3)([c]3ccccc3)[O]C21 (stereo unspecified),survivor count,"T/C endpoint: mean survival time, dose: 25.0 mg/kg/injection, schedule: Q01DX005 (ip), vehicle: other",0 of 6
same,survivor count,[2],0 of 6
same,survivor count,[3],0 of 6
same,survivor count,"T/C endpoint: mean survival time, dose: 200.0 mg/kg/injection, schedule: Q01DX005 (ip), vehicle: other",0 of 6
Cc1ccc(NC(=O)CI)cc1,survivor count,"T/C endpoint: mean survival time, dose: 200.0 mg/kg/injection, schedule: Q04DX002 (ip), vehicle: other",0 of 3
same,survivor count,"T/C endpoint: mean survival time, dose: 400.0 mg/kg/injection, schedule: Q04DX002 (ip), vehicle: other",0 of 3
CC1(C)CC2(OC2c2ccc([N+](=O)[O-])cc2)C(=O)c2ccccc21 (stereo unspecified),survivor count,[5],6 of 6
NC(CS)=NCCc1nc2ccccc2[nH]1,survivor count,"T/C endpoint: mean survival time, dose: 100.0 mg/kg/injection, schedule: Q04DX002 (ip), vehicle: saline",0 of 3
S=c1nccc[nH]1,survivor count,"T/C endpoint: mean survival time, dose: 200.0 mg/kg/injection, schedule: Q04DX002 (ip), vehicle: saline with Tween-80",0 of 3
same,survivor count,[1],0 of 3
CCN(CCN(C)C(C)(C)C(C)(C)C)C(=O)C(O)(c1ccccc1)c1ccccc1,survivor count,[7],0 of 3
C=C(OC)C(Nc1cc(OC)c(OC)cc1C(=O)OC1CC(O[C@@H]2C(=O)C(NC(=O)OC)=C3/C(=C\CSSSC)[C@]2(O)C#C/C=C\C#C[C@@H]3OC2OC(C)C(NOC3CC(O)C(SC)C(C)O3)C(O)C2OC2CC(OC)C(NCCC)CO2)OC(C)C1O)OC (stereo partly specified),T/C,"T/C endpoint: median survival time, dose: 0.08 micrograms/kg/injection, schedule: Q01DX005 (ip), vehicle: saline + alcohol",142 % of control
same,T/C,"T/C endpoint: median survival time, dose: 0.16 micrograms/kg/injection, schedule: Q01DX005 (ip), vehicle: saline + alcohol",132 % of control
same,T/C,"T/C endpoint: median survival time, dose: 0.8 micrograms/kg/injection, schedule: Q01DX005 (ip), vehicle: methylcellulose (MC)",135 % of control [5 of 6 alive]
same,T/C,"T/C endpoint: median survival time, dose: 1.6 micrograms/kg/injection, schedule: Q01DX001 (ip), vehicle: methylcellulose (MC)",139 % of control [5 of 6 alive]
same,T/C,"T/C endpoint: median survival time, dose: 1.6 micrograms/kg/injection, schedule: Q01DX005 (ip), vehicle: methylcellulose (MC)",148 % of control
same,T/C,"T/C endpoint: median survival time, dose: 1.6 micrograms/kg/injection, schedule: Q04DX003 (ip), vehicle: methylcellulose (MC)",144 % of control
same,T/C,"T/C endpoint: median survival time, dose: 3.2 micrograms/kg/injection, schedule: Q01DX001 (ip), vehicle: methylcellulose (MC)",148 % of control
same,T/C,"T/C endpoint: median survival time, dose: 3.2 micrograms/kg/injection, schedule: Q04DX003 (ip), vehicle: methylcellulose (MC)",148 % of control
same,survivor count,"T/C endpoint: median survival time, dose: 12.8 micrograms/kg/injection, schedule: Q01DX005 (ip), vehicle: methylcellulose (MC)",2 of 6
same,T/C,"T/C endpoint: median survival time, dose: 12.8 micrograms/kg/injection, schedule: Q04DX003 (ip), vehicle: methylcellulose (MC)",148 % of control
same,survivor count,"T/C endpoint: median survival time, dose: 25.6 micrograms/kg/injection, schedule: Q04DX003 (ip), vehicle: methylcellulose (MC)",2 of 6
same,survivor count,"T/C endpoint: median survival time, dose: 51.2 micrograms/kg/injection, schedule: Q01DX001 (ip), vehicle: methylcellulose (MC)",2 of 6
same,survivor count,"T/C endpoint: median survival time, dose: 102.4 micrograms/kg/injection, schedule: Q01DX001 (ip), vehicle: methylcellulose (MC)",1 of 6
CC(C)(C)N1CCOCC1,survivor count,[4],1 of 6
same,survivor count,[5],0 of 6
C=CCOC(=N)C(Cl)(Cl)Cl,survivor count,[7],3 of 3
OCCCl,survivor count,"T/C endpoint: mean survival time, dose: 300.0 mg/kg/injection, schedule: Q01DX001 (ip), vehicle: saline",1 of 6
CCC(C)C(=O)CN(C)C (stereo unspecified),survivor count,[9],0 of 4
Cc1cc(O)c(C)c(C)c1Cl,survivor count,[5],2 of 6
Nc1nc(SSc2nc(N)nc3c2ncn3C2CC(O)C(CO)O2)c2ncn(C3CC(O)C(CO)O3)c2n1 (stereo unspecified),T/C,"T/C endpoint: mean survival time, dose: 9.4 mg/kg/injection, schedule: Q01DX009 (ip), vehicle: saline",142 % of control
same,survivor count,"T/C endpoint: mean survival time, dose: 75.0 mg/kg/injection, schedule: Q01DX009 (ip), vehicle: saline",4 of 6
same,survivor count,"T/C endpoint: mean survival time, dose: 150.0 mg/kg/injection, schedule: Q01DX009 (ip), vehicle: saline",2 of 6
same,survivor count,"T/C endpoint: mean survival time, dose: 300.0 mg/kg/injection, schedule: Q01DX009 (ip), vehicle: saline",0 of 6
CNC(=O)OC(C)CC(O)(C(F)(F)F)C(F)(F)F (stereo unspecified),survivor count,"T/C endpoint: mean survival time, dose: 200.0 mg/kg/injection, schedule: Q04DX003 (ip), vehicle: Klucel (hydroxypropylcellulose) (HPC)",6 of 6
same,survivor count,"T/C endpoint: mean survival time, dose: 400.0 mg/kg/injection, schedule: Q04DX003 (ip), vehicle: Klucel (hydroxypropylcellulose) (HPC)",0 of 6
CC(=O)OC12C=C(C)C(C3C(=O)OC(=O)C31)C(C)(C)C2 (stereo unspecified),survivor count,"T/C endpoint: mean survival time, dose: 400.0 mg/kg/injection, schedule: Q01DX001 (ip), vehicle: saline",2 of 6
O=[N+]([O-])c1ccc(Nc2ccc(Br)cc2)c([N+](=O)[O-])c1,survivor count,[5],6 of 6
CCCCCCCCCCCCCCOc1ccc(Cl)cc1,survivor count,[1],3 of 3
CCCCOC(=O)/C=C(\Br)C(=O)OCCCC,survivor count,"T/C endpoint: mean survival time, dose: 50.0 mg/kg/injection, schedule: Q01DX009 (ip), vehicle: saline with Tween-80",5 of 6
same,survivor count,"T/C endpoint: mean survival time, dose: 100.0 mg/kg/injection, schedule: Q01DX009 (ip), vehicle: saline with Tween-80",6 of 6
same,survivor count,[7],0 of 6 and 1 of 6
CCN(CC)CCOC(=O)C(c1ccccc1)C(C)(O)CC (stereo unspecified),survivor count,"T/C endpoint: mean survival time, dose: 200.0 mg/kg/injection, schedule: Q04DX003 (ip), vehicle: saline",2 of 6
same,survivor count,[9],0 of 6
NC1CCCCC1CC1CCCCC1 (stereo unspecified),survivor count,[6],4 of 6
same,survivor count,[4],1 of 6
same,survivor count,[5],0 of 6
O=C(O)c1ccc(NC(=S)NC(=O)c2cccc(Br)c2)cc1,survivor count,"T/C endpoint: mean survival time, dose: 100.0 mg/kg/injection, schedule: Q01DX001 (ip), vehicle: saline with Tween-80",3 of 3
same,survivor count,[8],5 of 6
